Data as given in PubChem BioAssay AID1053208 (Peter MacCallum Cancer Centre, 2014)
Here is a random part of about 17,000 deposited reagents. 788 of them (4.7%) count as active. 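Calls rest on z-score classes alone; an extra cut-off of viability at most 70% of control was not applied to them.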 Unmarked entries are inactive. No sequences are given here.

Assay: 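Find knock-downs that sensitise mouse osteosarcoma cells to doxorubicin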 (primary screen)
Cells: mouse osteosarcoma cells, early-passage culture from an engineered mouse model of fibroblastic bone tumour
Reagents: siRNA pool against mouse genes, 40 nM
Duration: about 120 h (48 h before drug, then 72 h with drug)
Challenge: doxorubicin 100 nM for 72 h, roughly 30-40% inhibitory dose
Detection: 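Luminescent ATP signal taken as viability with or without 100 nM doxorubicin for 72 h; mean of two wells set against non-targeting siRNA and turned into robust z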
Direction: viability z-score with doxorubicin and doxorubicin viability vs non-targeting: higher = more viable cells under doxorubicin; viability z-score without drug: higher = more viable cells with knock-down alone; z-score of drug to no-drug ratio: higher = less drug sensitisation by knock-down
Active means: 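a pool counts as active when its viability z-score with doxorubicin is -2 or below and its z-score without drug lies between -2 and 2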

gene	combined z-score class	viability z-score with doxorubicin	viability z-score without drug	z-score of drug to no-drug ratio	doxorubicin viability vs non-targeting
Tut1 (GeneID 70044)	no change with or without drug	-0.11	1.18	-0.79	0.93
Hoxa6 (GeneID 15403)	no change with or without drug	0.22	0.17	0.22	0.96
Msrb3 (GeneID 320183)	no change with or without drug	0.34	-0.84	1.12	0.97
Tspo (GeneID 12257)	no change with or without drug	1.12	1.01	0.56	1.04
Skint9 (GeneID 329918)	no change with or without drug	-1.12	0.67	-1.46	0.84
Cldn3 (GeneID 12739)	no change with or without drug	-0.67	1.01	-1.24	0.88
2210415K24RIK	no change with or without drug	-0.22	0.17	-0.22	0.92
Klra2 (GeneID 16633)	no change with or without drug	-0.45	-0.67	0.11	0.9
Birc6 (GeneID 12211)	no change with or without drug	0.9	-1.18	2.02	1.02
Mapk1ip1 (GeneID 69546)	low cell count with and without drug	-3.15	-4.89	0.22	0.66
Semg1 (GeneID 53878)	no change with or without drug	0	0.51	-0.22	0.94
Ift70a1 (GeneID 78802)	high without drug; low with doxorubicin	-2.25	2.02	-3.26	0.74
Pth2 (GeneID 114640)	no change with or without drug	-0.9	-0.84	-0.22	0.86
Klf2 (GeneID 16598)	no change with or without drug	-0.67	-0.17	-0.45	0.88
Igfbp5 (GeneID 16011)	no change with or without drug	-0.67	-0.84	0	0.88
Or5p57 (GeneID 56861)	no change with or without drug	0.11	-0.51	0.56	0.95
Fgf14 (GeneID 14169)	no change with or without drug	-1.01	-0.51	-0.67	0.85
Cyp2j9 (GeneID 74519)	no change with or without drug	0	0.51	-0.22	0.94
Cltb (GeneID 74325)	no change with or without drug	-0.11	-0.51	0.34	0.93
Hivep1 (GeneID 110521)	high cell count with doxorubicin only	2.25	1.18	1.57	1.14

Just “viability z-score without drug” (2 entries from above):
Msrb3 (GeneID 320183)	-0.84
Tspo (GeneID 12257)	1.01
